Screen size: about 320,000 compounds; about 620 (0.19%) were called active. Inconclusive means that the source gave no clear call. Such entries were picked first, then a sample of the others. Cut-off read from the data, not from the text of the source: active = activation above about 80%; inconclusive = between about 30% and that limit; inactive = weaker than that.
Molecular target: Transient receptor potential cation channel subfamily V member 1 (Homo sapiens) (UniProt Q8NER1)
Test: HTS Assay for Compounds that Act as Agonists of the Vanilloid Receptor 1; note: 0% is about no effect
Conditions: TRPV1-expressing cells, Fluo-8 calcium influx, agonist mode; at 8.33 µM, hits give high values
Procedure, shortened: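 Cells expressing TRPV1 were dye-loaded with Fluo-8 and read kinetically: 10 s baseline, 3 min after compound (agonist portion), then 2 min after EC20 capsaicin (allosteric enhancer portion). Calcium-bound dye fluorescence at 480/520 nm.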

Chains of the proteins cited; added tags and fusions are not shown.
UniProt Q8NER1, whole entry, looked up: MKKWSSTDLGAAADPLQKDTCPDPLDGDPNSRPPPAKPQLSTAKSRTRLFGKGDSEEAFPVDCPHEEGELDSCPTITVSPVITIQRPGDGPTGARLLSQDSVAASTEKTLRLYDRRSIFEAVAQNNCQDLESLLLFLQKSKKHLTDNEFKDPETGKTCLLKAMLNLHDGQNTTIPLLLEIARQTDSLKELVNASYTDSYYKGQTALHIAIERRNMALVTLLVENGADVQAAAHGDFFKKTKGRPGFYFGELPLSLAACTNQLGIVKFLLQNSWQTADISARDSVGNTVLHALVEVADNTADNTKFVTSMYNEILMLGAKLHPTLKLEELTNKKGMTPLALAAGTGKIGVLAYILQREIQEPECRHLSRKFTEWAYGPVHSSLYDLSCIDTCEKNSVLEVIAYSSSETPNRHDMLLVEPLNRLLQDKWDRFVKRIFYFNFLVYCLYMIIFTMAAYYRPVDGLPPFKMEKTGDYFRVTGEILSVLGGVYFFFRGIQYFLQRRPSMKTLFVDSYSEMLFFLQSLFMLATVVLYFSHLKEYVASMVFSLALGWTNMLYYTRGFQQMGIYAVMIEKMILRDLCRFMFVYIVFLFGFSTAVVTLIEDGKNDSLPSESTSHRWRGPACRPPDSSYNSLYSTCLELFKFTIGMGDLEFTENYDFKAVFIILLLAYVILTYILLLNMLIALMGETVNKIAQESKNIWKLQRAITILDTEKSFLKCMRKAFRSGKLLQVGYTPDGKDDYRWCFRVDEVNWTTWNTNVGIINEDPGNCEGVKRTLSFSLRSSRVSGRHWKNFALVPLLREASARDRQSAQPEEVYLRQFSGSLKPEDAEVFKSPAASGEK

Compound	activation
O=C(/C=C/c1cccc([N+](=O)[O-])c1)N1CCN(Cc2ccc3c(c2)OCO3)CC1	inconclusive: 71.1%
O=C1N=C(N2CCOCC2)S/C1=C/c1ccc(-c2ccccc2Cl)o1	inconclusive: 36.7%
COc1ccc(C2CC(=O)Oc3ccc(C(C)(C)C)cc32)cc1 (stereo unspecified)	inconclusive: 31.8%
COc1ccccc1/C=C1\NC(=S)N(CC2CCCO2)C1=O (stereo unspecified)	inactive: -0.287%
COc1ccc(C(=O)NC(C)C2CC3CCC2C3)cc1 (stereo unspecified)	inconclusive: 44.7%
Cn1c2ccccc2c2cc(C(=O)N3CCOCC3)sc21	inconclusive: 40.2%
CNC(=O)c1ccccc1Sc1cccc2cccc(C(=O)O)c12	inactive: -2.69%
C/C(Cn1nnc([N+](=O)[O-])n1)=N\NC(=O)c1ccc(O)cc1	inconclusive: 51.1%
COc1cc(N=c2ssnc2Cl)cc(OC)c1	inactive: 7.46%
O=C(NCCCNC(=O)c1ccccc1Br)c1ccccc1Br	inactive: -7.63%
COc1cccc(/C=C/C(=O)c2ccc[nH]2)c1	inconclusive: 58.4%
CC(=O)NC12CC3CC(C1)CC(C(=O)OCC(=O)c1ccc4c(c1)OCCO4)(C3)C2	inconclusive: 66.1%
O=C(NCCC1=CCCCC1)c1cccc(S(=O)(=O)N2CCCCC2)c1	inconclusive: 70.1%
CC1CCN(C(=O)c2ccc(NS(=O)(=O)c3ccccc3)cc2)CC1	inactive: 2.86%
c1ccc(-c2nnc(N3CCCC3)nc2-c2ccccc2)cc1	inconclusive: 70.3%
O=C(O)CCCn1cc(NC(=O)c2c(F)cccc2F)cn1	inactive: -5.25%
Cc1cc(=O)[nH]c(SCCc2ccccc2)n1	inconclusive: 36.7%
CC1(c2ccccc2Cl)NC(=O)N(CC(=O)Nc2ccc3c(c2)OCO3)C1=O (stereo unspecified)	inactive: -0.0596%
c1ccc2c(c1)[nH]c1c(N3CCN(C4CCCCC4)CC3)ncnc12	inactive: 2.86%
CC(C)(C)n1nc(C2CC2)cc1NC(=O)Nc1ccc(Cl)cc1	inactive: 11.3%
Cc1nc(NC(C)c2ccccc2)c2oc3ccccc3c2n1 (stereo unspecified)	inconclusive: 60.7%
O=C(Nc1ccc(F)cc1)c1cc(-c2ccncc2)nc2c(Cl)cccc12	inconclusive: 34.8%
CCOC(=O)c1ccc(NC(=O)NCc2ccncc2)cc1	inconclusive: 48.9%

No new results follow: entries from further up.
Compound	activation
O=C(O)CCCn1cc(NC(=O)c2c(F)cccc2F)cn1	inactive: -5.25%
Cc1cc(=O)[nH]c(SCCc2ccccc2)n1	inconclusive: 36.7%
CC1(c2ccccc2Cl)NC(=O)N(CC(=O)Nc2ccc3c(c2)OCO3)C1=O (stereo unspecified)	inactive: -0.0596%

Going on with the list.

Compound	activation
COc1ccc(C(=O)Cc2cc(OC)c(OC)cc2[N+](=O)[O-])cc1	inconclusive: 33.1%
COc1ccc(CNc2ncnc3c2[nH]c2cc(OC)c(OC)cc23)cc1	inactive: 0.994%
NC(=S)N=Nc1c(O)[nH]c2ccccc12	inactive: -1.81%
C/C(=N/NC(=O)c1ccncc1)c1cc2ccc(O)cc2oc1=O	inactive: 27.8%
Cc1cc(C(=O)Nc2ccc(N3CCCCC3)cc2)no1	inconclusive: 77.8%
CCCn1cc(NC(=O)c2cc(-c3ccccc3)on2)cn1	inconclusive: 58.2%
COc1cccc(NC(=O)NCCCCc2ccccc2)c1	inconclusive: 73.9%
COc1ccc(N2C(=O)C(CN3CCN(C)CC3)C2c2ccccc2)cc1 (stereo unspecified)	inactive: 5.13%
O=C(NN1C(=O)/C(=C/c2ccc(O)c(O)c2)SC1=S)c1ccccc1	inactive: 3.31%
O=C(c1cc2c(s1)CCCCC2)N1CCN(c2ncccn2)CC1	inconclusive: 33.8%
CCOC(=O)c1ccc(NC(=O)Nc2ccc(OC)c(OC)c2)cc1	inconclusive: 51.9%
COc1ccc(C(=O)/C=C/C(=O)N(Cc2ccccc2)C(C(=O)NC2CCCCC2)c2ccncc2)c(O)c1 (stereo unspecified)	inconclusive: 54.7%
COC(=O)c1ccc(N2CCCCC2)c(NC(=O)c2ccco2)c1	inconclusive: 50.1%
CN(CC(=O)Nc1ccc(Cl)c(Cl)c1)C1CCCCC1	inconclusive: 39.1%
CC(C)(C)c1ccc(C(=O)Nc2cccc3c(=O)[nH][nH]c(=O)c23)cc1	inconclusive: 32.2%
C=CCN1CCN(C(=O)c2ccc(-c3ccccc3)cc2)CC1	inconclusive: 56%
COc1cccc(NC(=O)c2cc3cccc(OC)c3o/c2=N\O)c1	inconclusive: 56.7%
CCOC(=O)C1=C(CC)Nc2ccccc2N=C1NC(=O)c1cccc(S(=O)(=O)N2CCOCC2)c1	inconclusive: 49.4%
CCC1CCC(N2CCN(c3ccc([N+](=O)[O-])cc3)CC2)CC1 (stereo unspecified)	inactive: -10.1%
COCc1c(C(=O)N2CCN(CCOc3ccccc3)CC2)oc2ccccc12	inactive: 4.49%
CN(CCOc1ccccc1)c1ccc(S(=O)(=O)N2CCCCC2)cn1	inconclusive: 41.9%
COc1ccc(C(=O)Nc2ccc(F)cc2F)cc1	inconclusive: 33%
CC(C)CCNc1nnnc2c1sc1nc(N3CCOCC3)c3c(c12)CC(C)(C)SC3	inconclusive: 38%

Compound	activation
COc1ccc(NC(=O)c2sc(N3CCOCC3)nc2-c2ccccc2)c(OC)c1	inconclusive: 42.8%
O=C(CNCC1CCCCC1)Nc1ccccc1N1CCCCC1	inconclusive: 46.9%
CCOC(=O)C1=C(C)N(c2ccc(OC)cc2)C(=O)/C1=C\c1ccc(O)c(OCC)c1	inactive: -0.333%
O=C(O)/C(=C\c1ccccc1OC(F)F)Sc1nnc(-c2ccc(F)cc2)o1	inconclusive: 40.2%
CCOCCCNC(=O)c1cc2c(s1)-c1ccccc1SC2	inconclusive: 32.7%
O=C(O)CC1(CC(=O)Nc2ccc3ccccc3n2)CCCCC1	inactive: -0.221%
C=CCN(CC=C)C(=O)c1ccc2nc(Cc3ccc(OC)c(OC)c3)oc2c1	inconclusive: 78.9%
Nc1ccc(C(=O)Nc2ccc(OC(F)(F)C(F)F)c(NC(=O)c3ccc(N)cc3)c2)cc1	inactive: 0.359%
CC(C)Cn1c(SCC(=O)Nc2cccc(S(N)(=O)=O)c2)nc2ccccc2c1=O	inconclusive: 77.6%
C=CCOc1ccc(C(=O)NC2CCCCC2)cc1	inconclusive: 46.5%
COc1ccc(OCCC(=O)NCC23CC4CC(CC(C4)C2)C3)cc1	inconclusive: 31.5%
O=C(/C=C/c1ccccc1)N1CCN(S(=O)(=O)c2ccc(F)cc2)CC1	inconclusive: 61.6%
CC1CN(C(=O)c2cnn3c(C(F)F)cc(-c4ccccc4)nc23)CC(C)O1 (stereo unspecified)	inconclusive: 58.5%
O=C1CN(C(=O)CSc2nc3ccccc3c(=O)n2Cc2ccc(F)cc2)c2ccccc2N1	inactive: -3.84%
Cc1ccc(C2(c3ccc(C)cc3)CC2C(=O)NC(C)C)cc1 (stereo unspecified)	inconclusive: 65.7%
O=C(NCCc1ccc(Cl)cc1)c1ccc2c(c1)OCO2	inconclusive: 71%
CC1CCC(C(C)C)C(OC(=O)CSc2n[nH]c(=O)[nH]c2=O)C1 (stereo unspecified)	inconclusive: 31.1%
C/C(=N/NC(=O)c1cc(C(C)C)[nH]n1)c1cccs1	inactive: 7.04%
Cc1sc(NC(=O)c2cc3ccccc3oc2=O)c(C(=O)OC(C)C)c1-c1ccccc1	inconclusive: 32.8%
O=C(Cc1ccc(F)cc1)Nc1cccc2cccnc12	inconclusive: 39.2%
CCC1CCc2sc(C(=O)N(C)CC(=O)Nc3ccc(OC)cc3)cc2C1 (stereo unspecified)	inconclusive: 35.6%
CC(C)(C)C(=O)N1CCC(O)(CS(=O)(=O)Cc2ccccc2Cl)CC1	inactive: -7.85%
CCCC(=O)Nn1cnc2c(c1=O)C1(CCCCC1)Cc1ccccc1-2	inconclusive: 44.8%

Compound	activation
CC(C)(C)NC(=O)C(c1ccsc1)N(CCc1ccccc1)C(=O)Cn1nnc2ccccc21 (stereo unspecified)	inconclusive: 43.8%
O=C(NCc1ccncc1)C1CCN(S(=O)(=O)c2ccc(Cl)c(C(F)(F)F)c2)CC1	inconclusive: 75.7%
CCCNC(=O)/C=C/c1ccc(C(C)C)cc1	inconclusive: 60.1%
Cc1ccc(Cc2cnc(NC(=O)c3ccco3)s2)cc1	inconclusive: 45.7%
CC(C)(C)C(=O)/C(C#N)=C/c1ccc(O)cc1	inconclusive: 32.7%
O=C(C1CCCO1)N1CCN(c2ncccn2)CC1 (stereo unspecified)	inconclusive: 50.1%
COc1ccc(CNC(=O)CCc2ccc(S(=O)(=O)N3CCCCCC3)cc2)cc1OC	inconclusive: 78.8%
COC(=O)c1cccc(NC(=O)c2cc3ccccc3o2)c1	inconclusive: 57.9%
O=C1NC2(CCCCCC2)C(=O)N1Cc1ccc(F)cc1Cl	inactive: 5.86%
CCCN(C(=O)C1CCCN(c2ncnc3c2nc2n3CCCCC2)C1)c1ccc(F)cc1 (stereo unspecified)	inconclusive: 65.3%
COCc1c(C(=O)N2CCc3ccccc32)oc2ccccc12	inconclusive: 41.3%
CN(CC(=O)NCC1CCCCC1)S(=O)(=O)c1ccc(Cl)cc1	inconclusive: 45.1%
Cc1ccc(NC(=S)NNc2ncc(C(F)(F)F)cc2Cl)c(C)c1	inactive: 0.686%
CCOC(=O)C1(CC2CCCCO2)CCN(Cc2cc3ccccc3[nH]2)CC1 (stereo unspecified)	inconclusive: 57.3%
O=C(/C=C/c1cccc([N+](=O)[O-])c1)NCCSCc1cccc(Cl)c1	inconclusive: 40.7%
Cc1ccc(NS(=O)(=O)c2ccc3c(c2)NC(=O)CCS3)c(Br)c1	inconclusive: 35.5%
CC(C)CCNC(=O)c1ccccc1NC(=O)C1=CSCCO1	inconclusive: 31.1%
Cc1cc(NC(=O)C(C)SCC(=O)Nc2cc(C(F)(F)F)ccc2N2CCOCC2)no1 (stereo unspecified)	inactive: 0.738%
COC(=O)c1sc2nc[nH]c(=O)c2c1C	inactive: 1.15%
Cc1ccccc1CSCCNC(=S)Nc1ccccc1	inconclusive: 70%
Cc1ccc(SCC(=O)c2cc(C)c(OC(=S)N(C)C)c(C)c2)cc1	inconclusive: 33.3%
O=C(CN1CCOCC1)Nc1ncc(Cc2cccc(Cl)c2Cl)s1	inconclusive: 36.8%

A few values from above.
activation with Cc1ccc(Cc2cnc(NC(=O)c3ccco3)s2)cc1 is entered as inconclusive: 45.7%
activation with O=C(CN1CCOCC1)Nc1ncc(Cc2cccc(Cl)c2Cl)s1 is entered as inconclusive: 36.8%
activation with CCCN(C(=O)C1CCCN(c2ncnc3c2nc2n3CCCCC2)C1)c1ccc(F)cc1 (stereo unspecified) is entered as inconclusive: 65.3%
activation with CCOC(=O)C1(CC2CCCCO2)CCN(Cc2cc3ccccc3[nH]2)CC1 (stereo unspecified) is entered as inconclusive: 57.3%

Reference: PubChem BioAssay AID540275 (National Center for Advancing Translational Sciences (NCATS), 2011)
